Values quoted from earlier work, collected in US20210007985A1, “LIPOSOMAL ANTI-INFECTIVE FORMULATIONS TO INHIBIT NON-TUBERCULOUS MYCOBACTERIA (NTM) MICROAGGREGATE FORMATION AND ESTABLISHMENT OF NTM BIOFILM” (ARADIGM CORPORATION, priority 2017, published 2021).
For at least one compound, name, drawing or mass did not settle the structure.

tested on: M. avium biofilm; conditions: incubation of M. avium with antibiotic; McNabe et al. 2012; cited from earlier work

Row | SMILES | effect on M. avium biofilm formation
1 | COc1c(N2C[C@@H]3CCCN[C@@H]3C2)c(F)cc2c(=O)c(C(=O)O)cn(C3CC3)c12 [moxifloxacin] | no effect on biofilm
2 | CO[C@H]1/C=C/O[C@@]2(C)Oc3c(C)c(O)c4c(O)c(c(/C=N/N5CCN(C)CC5)c(O)c4c3C2=O)NC(=O)/C(C)=C\C=C\[C@H](C)[C@H](O)[C@@H](C)[C@@H](O)[C@@H](C)[C@H](OC(C)=O)[C@@H]1C [rifampicin] | no effect on biofilm
3 | CN(C)[C@@H]1C(O)=C(C(N)=O)C(=O)[C@@]2(O)C(O)=C3C(=O)c4c(O)cccc4[C@@](C)(O)[C@H]3C[C@@H]12 [tetracycline] | an increase, not decrease, in the biofilm formation
